# Data: PubChem BioAssay AID1347076 (National Center for Advancing Translational Sciences (NCATS), 2019)
# About 13,000 (3.2%) of roughly 400,000 compounds were called active. This list was built around the results that the source calls inconclusive (neither active nor inactive); the mix of calls is not that of the screen. The call rests on the fitted dose curve; in most records, active means well fitted cell-killing curve with a large enough effect; inconclusive means small, poorly fitted or top-dose-only effect, or effect the other way; inactive means flat fitted curve, though single readings scatter. Potencies of inconclusive entries are doubtful fits and often do not repeat.
# Assay: qHTS assay for MDR1-selective chemotherapeutics: Primary screen using the drug-selected MDR subline cells KB-V1; further: nearly all actives have a fitted effect of over 60% in size
# Settings: KB-V1 MDR cells viability, CellTiter-Glo, 72 h; series mostly up to 46.1 µM
# How it was run: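 Drug-selected KB-V1 cells, grown in DMEM lacking phenol red with 10% FBS, receive compound titrations; after three days at 37 degrees C, surviving cell ATP is quantified by CellTiter-Glo luminescence and responses normalized and curve-fitted.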
# Potency means the concentration at half of the fitted maximal effect.
row,SMILES,Potency
1,Cc1ccc(C)c(NC(=S)N2CCC(NC(=O)c3ccco3)CC2)c1,"inconclusive: 32.6 µM [cytotoxic, single point]"
2,COc1ccc(S(=O)(=O)N2CCCC2)cc1C(=O)O,inactive
3,COCCSc1nnc(NC(=O)Cc2ccccc2OC)s1,active: 18.4 µM
4,O=C(Nc1ccc2c(c1)OCO2)c1ccc(NC2CC2)c([N+](=O)[O-])c1,active: 14.6 µM
5,CC(C)NC(=O)C1(C)CCN1CCC(=O)c1ccccc1 (stereo not given),inactive
6,CCCCOc1ccccc1C1CC(=O)NC2=C1C(=O)CCC2 (stereo not given),"inconclusive: 9.2 µM [cytotoxic, partial curve, poor fit]"
7,O=C(Nc1ccc2c(c1)OCO2)c1ccc(CN2CCOCC2)cc1,"inconclusive: 29.1 µM [cytotoxic, single point]"
8,Cc1ccc(C)c(NC(=O)c2cc(S(=O)(=O)NCCc3ccccc3)ccc2F)c1,"inconclusive: 23.1 µM [cytotoxic, single point]"
9,COc1ccccc1C(c1nnnn1C(C)(C)C)N1CCCc2ccccc21 (stereo not given),active: 23.1 µM
10,COc1ccc(NC(=O)C2CCN(S(=O)(=O)c3cc(-c4noc(C)n4)ccc3C)CC2)cc1,inactive
11,Cc1cccc(NC(=O)CSc2nc3ccccc3nc2N2CCCCC2)c1,"inconclusive: 16.4 µM [cytotoxic, single point]"
12,CCS(=O)(=O)C1=NSC2=NC(=O)/C(=C\c3ccc(OC(=O)c4ccco4)cc3)C(=N)N21,"inconclusive: 2.31 µM [cytotoxic, full curve, poor fit]"
13,COc1cccc(C(=O)Nc2c(C)nn(-c3ccccc3)c2C)c1,"inconclusive: 20.6 µM [cytotoxic, single point]"
14,CCOc1cc(C(=O)N(Cc2ccccc2)c2ccc(C)cc2)ccc1OCC(=O)N1CCOCC1,"inconclusive: 23.1 µM [cytotoxic, single point]"
15,O=C(Oc1c(CN2CCOCC2)cc(Cl)c2cccnc12)c1ccc(F)cc1,active: 3.26 µM
16,CC(C)[C@H](NC(N)=O)C(=O)Nc1cccc([N+](=O)[O-])c1,inactive
17,COc1ccc(Cc2c(O)nc(SCC(=O)N3CCOCC3)[nH]c2=O)cc1,"inconclusive: 8.2 µM [rising, partial curve]"
18,COc1ccccc1CNC(=O)CSc1nn2c(=O)c(C(C)(C)C)nnc2s1,"inconclusive: 5.8 µM [cytotoxic, partial curve, poor fit]"
19,CCCCNC(=O)CCn1c(=O)c2ccccc2n(Cc2cccc(Cl)c2)c1=O,inactive
20,CCOC(=O)C1CCCN(C(=O)c2ccc3c(c2)N(Cc2ccc(Cl)cc2)C(=O)c2ccccc2S3=O)C1 (stereo not given),inactive

# Molecules from the list above with a furan ring, fused or not (2):
row,SMILES,Potency
1,Cc1ccc(C)c(NC(=S)N2CCC(NC(=O)c3ccco3)CC2)c1,"inconclusive: 32.6 µM [cytotoxic, single point]"
12,CCS(=O)(=O)C1=NSC2=NC(=O)/C(=C\c3ccc(OC(=O)c4ccco4)cc3)C(=N)N21,"inconclusive: 2.31 µM [cytotoxic, full curve, poor fit]"
